# Experimental data as given in patent US20230301988A1 (priority 2020, published 2023).
# HELM strings list residues between dots; [ac] is acetyl, [am] amide, other brackets name non-standard units.
# Assay: general procedure: Fmoc solid-phase peptide synthesis; Rink Amide AM resin (Novabiochem, 0.73 mmol/g); COMU/DIPEA
# Conditions: whole synthesis, formic acid salt
substance,measurement,setting,value
PEPTIDE1{[Abz].S.A.V.L.Q.S.G.F.R.[Lys(DNP)].[am]}$$$$V2.0,final purity (method not given),"UV 350 nm, scale of the general procedure 200 umol",≥95%
same,isolated mass,,42.4 mg
same,isolated yield,scale of the general procedure 200 umol,29.2%
